# Experimental data from PubChem BioAssay AID1347076 (National Center for Advancing Translational Sciences (NCATS), 2019).
# The campaign covered roughly 400,000 compounds. About 13,000 (3.2%) were called active. The inconclusive results got no clear call from the source; some entries with a clear call stand among them for comparison. The call rests on the fitted dose curve; in most records, active means well fitted cell-killing curve with a large enough effect; inconclusive means small, poorly fitted or top-dose-only effect, or effect the other way; inactive means flat fitted curve, though single readings scatter. Potencies beside an inconclusive call are fits to weak or partial responses and may not hold up.
# Experiment: qHTS assay for MDR1-selective chemotherapeutics: Primary screen using the drug-selected MDR subline cells KB-V1; further: nearly all actives have a fitted effect of over 60% in size
# Settings: KB-V1 MDR cells viability, CellTiter-Glo, 72 h; series mostly up to 46.1 µM
# Procedure, shortened: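 Following 72 h at 37 degrees C with compound, KB-V1 cell viability was read by CellTiter-Glo luminescence, medium being phenol-red-free DMEM plus 10% FBS; concentration-response parameters came from normalized, curve-fitted qHTS data.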
# Potency means the concentration at half of the fitted maximal effect.
row,SMILES,Potency
1,Cc1ccc(-c2csc(N3CCN(CCCn4c(-c5ccncc5)nc5ccccc54)CC3)n2)cc1,active: 18.4 µM
2,Cc1ccc(-n2c(C)nc3c(cnn3-c3ccccc3Cl)c2=O)cc1C,active: 20.6 µM
3,CNc1nc(Nc2ccc([N+](=O)[O-])cc2)nc(OCC(F)(F)F)n1,"inconclusive: 2.59 µM [rising, full curve]"
4,COc1ccc(-n2c(=O)c3sc4ccccc4c3n(CC(=O)NCc3ccccc3)c2=O)cc1,inactive
5,CNC(=S)N/N=C1\CC(c2ccccc2)Oc2ccccc21 (stereo unspecified),"inconclusive: 25.9 µM [cytotoxic, single point]"
6,CC(=C/c1ccccc1)/C=N/NC(=O)c1cccs1,"inconclusive: 16.4 µM [cytotoxic, partial curve, poor fit]"
7,CC1(C(=O)Nc2cnc3ccccc3c2)CCN1Cc1ccc(-c2ccccc2)o1 (stereo unspecified),"inconclusive: 20.6 µM [cytotoxic, partial curve, poor fit]"
8,CCc1ccc(S(=O)(=O)N2c3ccc(C)cc3C3CN(C)CCC32)cc1 (stereo unspecified),active: 20.6 µM
9,O=C(CN1CCOCC1)Nc1ccccc1-c1ccccc1,"inconclusive: 29.1 µM [cytotoxic, single point]"
10,O=C(Cn1[nH]c(=O)c2ccccc2c1=O)NC1CCCCCC1,"inconclusive: 18.4 µM [cytotoxic, single point]"
11,O=C(Nc1nc2ccccc2s1)c1cc(-c2ccccc2)nn1-c1ccccc1,active: 20.6 µM
12,COc1ccc(CC(=O)N(CC2CCCO2)c2nc3ccccc3s2)cc1 (stereo unspecified),"inconclusive: 16.4 µM [cytotoxic, partial curve]"
13,CCn1c(CC2C(=O)N(C)c3ccccc32)nc2ccccc2c1=O (stereo unspecified),inactive
14,O=C(c1ccc(Oc2ccc([N+](=O)[O-])cc2Cl)cc1)N1CCCC1,"inconclusive: 14.6 µM [cytotoxic, partial curve]"
15,CC(c1ccon1)N(C)C(=O)CCc1nnc(Cc2ccc(-c3ccccc3)cc2)o1 (stereo unspecified),"inconclusive: 7.31 µM [cytotoxic, partial curve]"
16,N#C/C(=C/C=C/c1ccccc1)C(=O)Nc1ccccc1,active: 16.4 µM
17,O=C(NCc1ccco1)/C(=C\C=C\c1ccccc1)NC(=O)c1ccccc1Br,inactive
18,CCCNC(=O)C1(C)CCN(C(=O)c2ccc(OC)cc2OC)C1 (stereo unspecified),inactive
19,O=C(Oc1ccccc1)N1CCN(c2ccc(F)cc2)CC1,"inconclusive: 20.6 µM [cytotoxic, single point]"
20,Cn1c(=N)n(CC(O)c2ccco2)c2ccccc21 (stereo unspecified),inactive
21,O=C(N/N=C/c1ccccn1)c1cc(-c2ccc3ccccc3c2)n[nH]1,inactive
22,Cc1nc2c(OCc3ccc(Cl)cc3)cccn2c1N(C)C(=O)CCC1CCCC1,"inconclusive: 18.4 µM [cytotoxic, single point]"
23,CCN(CC(=O)Nc1ccc2c(c1)OCCO2)C(=O)c1ccc(Cl)cc1Cl,"inconclusive: 10.3 µM [cytotoxic, partial curve, poor fit]"

row,SMILES,Potency
1,COc1ccc(N(CC(=O)NCc2ccccc2)S(=O)(=O)c2c(C)n[nH]c2C)cc1,"inconclusive: 29.1 µM [rising, single point]"
2,COCCCNC(=O)CN(c1ccc(Cl)c(Cl)c1)S(C)(=O)=O,"inconclusive: 23.1 µM [cytotoxic, single point]"
3,CC(=O)c1cccc(N=C2NC(=O)CS2)c1,active: 6.51 µM
4,CCCOc1ccc(-c2nc(N3CCN(CC)CC3)c3ccccc3n2)cc1,inactive
5,Cc1nnc(SCC(=O)NC2CCCC2)n1-c1ccccc1,"inconclusive: 2.06 µM [rising, full curve]"
6,CC(=O)N1CCN(C(=O)c2cccc(S(=O)(=O)N3CCOCC3)c2)CC1,"inconclusive: 29.1 µM [rising, single point]"
7,COc1ccc(CNC(=O)c2cccc(S(=O)(=O)N3CCN(c4ccc(F)cc4)CC3)c2)cc1,inactive
8,C=CCn1c(SCC(=O)c2cc(C)n(C)c2C)nnc1-c1ccncc1,"inconclusive: 20.6 µM [cytotoxic, single point]"
9,Cc1ccccc1C(=O)N1CCN(c2ccc(NC(=O)Cc3ccccc3)cc2)CC1,inactive
10,O=C(CCC(=O)Nc1ccc(Br)cc1)N/N=C/c1ccc(O)cc1,"inconclusive: 25.9 µM [rising, single point]"
11,Cc1cccc(C)c1NC(=O)C(c1cccc2ccccc12)n1c(=O)c(-c2cc3ccccc3[nH]2)nc2ccccc21 (stereo unspecified),inactive
12,COCCn1c(SCC(=O)N2CCCC2)nc2c(c1=O)SCC2,inactive
13,COc1cccc2c1Oc1ncccc1N(C(=O)CCC(=O)NCc1ccccc1F)C2,inactive
14,Cc1ccc(S(=O)(=O)N2CCCCC2CCNC(=O)C(=O)NCc2ccccc2C)cc1 (stereo unspecified),active: 9.2 µM
15,CC1CC(C)(C)CC2(C1)NC(=O)N(CC(=O)OCC(=O)Nc1cc(S(=O)(=O)N3CCCCC3)ccc1Cl)C2=O (stereo unspecified),"inconclusive: 14.6 µM [cytotoxic, partial curve]"
16,COc1ccc(OC)c(NC(=O)CSc2nncc3ccc(OC)c(OC)c23)c1,inactive
17,O=C(Nc1ccnn1C1CCN(CCCC2CCCC2)CC1)c1ccccc1Cl,inactive
18,CC(=O)OC1CCC2(C)C3=CCC4(C)C(C(C)=O)=CCC4C3CCC2C1 (stereo unspecified),"inconclusive: 23.1 µM [cytotoxic, partial curve, poor fit]"
19,NC(=O)CCN(C(=O)c1cccc(S(=O)(=O)N2CCc3ccccc32)c1)c1ccccc1,"inconclusive: 20.6 µM [cytotoxic, single point]"
20,COc1ccc2[nH]cc(CCNC(=O)c3cnn(-c4ccccc4Cl)c3C3CCN(C(=O)OC(C)(C)C)CC3)c2c1,"inconclusive: 18.4 µM [cytotoxic, single point]"
21,Cc1ccc(C(=O)O/N=C(\N)c2ccccn2)cc1C,"inconclusive: 16.4 µM [cytotoxic, single point]"
22,Cc1nc2c(C(=O)NCCc3ccccc3)c[nH]n2c(=O)c1Cc1ccc(F)cc1Cl,"inconclusive: 29.1 µM [rising, single point]"
23,CCOC(=O)C1=CC[C@@H](c2ccccc2)N(S(=O)(=O)c2ccc(C)cc2)[C@H]1C#N,inactive

# Structural class: the entries above containing an aryl thioether with sulfur outside any ring
row,SMILES,Potency
5,Cc1nnc(SCC(=O)NC2CCCC2)n1-c1ccccc1,"inconclusive: 2.06 µM [rising, full curve]"
8,C=CCn1c(SCC(=O)c2cc(C)n(C)c2C)nnc1-c1ccncc1,"inconclusive: 20.6 µM [cytotoxic, single point]"
12,COCCn1c(SCC(=O)N2CCCC2)nc2c(c1=O)SCC2,inactive
16,COc1ccc(OC)c(NC(=O)CSc2nncc3ccc(OC)c(OC)c23)c1,inactive
